Amino acid sequences for entries named in this document (tags omitted). A change or cut given only in a name is not applied to a line headed by its entry. Residues count along the entry.
UniProt Q03405: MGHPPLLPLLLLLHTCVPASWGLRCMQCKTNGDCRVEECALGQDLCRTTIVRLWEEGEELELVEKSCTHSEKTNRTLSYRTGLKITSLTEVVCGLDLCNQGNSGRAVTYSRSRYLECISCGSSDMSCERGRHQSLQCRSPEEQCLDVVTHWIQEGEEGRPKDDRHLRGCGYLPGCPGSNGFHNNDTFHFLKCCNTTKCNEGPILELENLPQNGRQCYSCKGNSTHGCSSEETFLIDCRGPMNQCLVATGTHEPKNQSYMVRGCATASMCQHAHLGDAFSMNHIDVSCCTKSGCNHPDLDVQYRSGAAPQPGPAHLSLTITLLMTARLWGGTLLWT
UniProt P01042, residues 19-644: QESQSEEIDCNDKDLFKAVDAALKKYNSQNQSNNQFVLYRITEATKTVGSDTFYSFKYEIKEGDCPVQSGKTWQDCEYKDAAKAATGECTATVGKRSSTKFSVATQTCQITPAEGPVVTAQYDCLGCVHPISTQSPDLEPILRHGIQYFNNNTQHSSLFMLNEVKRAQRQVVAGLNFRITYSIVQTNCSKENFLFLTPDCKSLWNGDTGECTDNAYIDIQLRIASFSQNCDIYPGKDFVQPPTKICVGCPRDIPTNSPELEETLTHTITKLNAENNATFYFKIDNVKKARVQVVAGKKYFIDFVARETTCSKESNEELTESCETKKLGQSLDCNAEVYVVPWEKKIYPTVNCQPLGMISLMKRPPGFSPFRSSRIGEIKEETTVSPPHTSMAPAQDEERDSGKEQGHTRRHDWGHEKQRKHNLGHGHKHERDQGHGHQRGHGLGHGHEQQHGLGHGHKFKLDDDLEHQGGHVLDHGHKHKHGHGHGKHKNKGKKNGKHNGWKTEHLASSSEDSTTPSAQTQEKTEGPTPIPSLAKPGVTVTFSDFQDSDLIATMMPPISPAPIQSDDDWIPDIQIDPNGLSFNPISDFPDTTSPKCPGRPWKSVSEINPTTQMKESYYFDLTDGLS

In PMC8964761:

Molecular target: dimeric suPAR (human) (UniProt Q03405)
Assay: pull-down; monomeric or dimeric suPAR held on ATN658-coated Protein A Dynabeads; ligands at 0.5 mg/mL for 10 min in PBST, room temperature; eluted with 50 mM Glycine pH 2.8, SDS-PAGE; both purified

Molecule: high molecular weight kininogen (HMWK) (from UniProt P01042 19-644) (ligand)
- binding: binds

B1: streptococcal surface dehydrogenase (SDH) (protein, UniProt P0C0G7 1-336)
chain: MVVKVGINGFGRIGRLAFRRIQNIEGVEVTRINDLTDPNMLAHLLKYDTTQGRFDGTVEVKEGGFEVNGNFIKVSAERDPENIDWATDGVEIVLEATGFFAKKEAAEKHLHANGAKKVVITAPGGNDVKTVVFNTNHDILDGTETVISGASCTTNCLAPMAKALHDAFGIQKGLMTTIHAYTGDQMILDGPHRGGDLRRARAGAANIVPNSTGAAKAIGLVIPELNGKLDGAAQRVPVPTGSVTELVVTLDKNVSVDEINAAMKAASNDSFGYTEDPIVSSDIVGVSYGSLFDATQTKVMEVDGSQLVKVVSWYDNEMSYTAQLVRTLEYFAKIAK
- binding: binds

Results are given in words; binding and its absence hold for the method and conditions named. Binding can be weak; no strength is given.
